Test results as given in US20110053991A1, “Treatment of Histone Deacetylase Mediated Disorders” (priority 2007, published 2011).
pIC50: −log10 of the molar value.

How the values were obtained:
Test in all cases: MTT assay, cell number relative to vehicle
Type in all cases: cell-based
[1] = system: Molt-3; settings: Homo sapiens, Molt-3, T Cell Lymphoblastic Leukemia, 48 hours
[2] = system: Molt-4; settings: Homo sapiens, Molt-4, T Cell Lymphoblastic Leukemia, 48 hours
[3] = system: HSB-2; settings: HSB2, HSB-2 (LCK-TCRβ), T Cell Lymphoblastic Leukemia, 48 hours
[4] = system: CEM; settings: Homo sapiens, CCRF-CEM, T Cell Lymphoblastic Leukemia, 48 hours
[5] = system: RCH-AcV; settings: RCH-AcV (E2A-PBX1), B Cell Lymphoblastic Leukemia, 48 hours
[6] = system: REH; settings: Homo sapiens, REH (TEL-AML1), B Cell Lymphoblastic Leukemia, 48 hours
Experimental: Acute lymphocytic leukemia (ALL) cell lines (REH, CEM, RS411, SEM, and/or KOPN8) and acute myeloid leukemia (AML) cell lines (MV411, Molm13, Molm14, THP1, and/or NOMO1) were treated with vorinostat (SAHA), entinostat (SNDX-275), or vehicle only for 48 hours (FIGS. 1-3 and Table 1). Alternatively, an ALL cell line (REH) was treated with Trichostatin A (TSA), sodium phenyl butyrate (SPB), or vehicle only for 48 hours. MTT or BrdU were added for 4 hours. The relative number of viable cells, as indicated by MTT reduction, was determined (FIG. 1A and Table 1). The relative number of proliferating cells, as indicated by BrdU-incorporation, was measured using an ELISA assay (FIG. 1B). IC50 values were calculated using non-linear regression (Table 1). The percentages of apoptotic and dead cells were determined by flow cytometric analysis of cells stained with YO-PRO®-1 and propidium iodide (FIGS. 2 and 5A). DNA content was determined by flow cytometric analysis of propidium iodide stained cells. The fractions of cells with G1, S, and G2/M phase DNA contents were determined (FIGS. 3 and 5B).

[7] = system: UOCB1; settings: Homo sapiens, UoC-B1, UOCB1 (E2A-HLF), B Cell Lymphoblastic Leukemia, 48 hours
[8] = system: Nalm-6; settings: Homo sapiens, Nalm-6 (PDGFRβ-TEL), B Cell Lymphoblastic Leukemia, 48 hours
[9] = system: HAL-01; settings: Homo sapiens, HAL-01 (TCF3/E2A-HLF), B Cell Lymphoblastic Leukemia, 48 hours
[10] = system: RS4; 11; settings: Homo sapiens, 11 (MLL-AF4), Biphenotypic Leukemia with Lymphoblastic Features, 48 hours
[11] = system: SEM cells; settings: SEM (MLL-AF4), Biphenotypic Leukemia with Lymphoblastic Features, 48 hours
[12] = system: KOPN-8; settings: Homo sapiens, KOPN-8 (MLL-ENL), Biphenotypic Leukemia with Lymphoblastic Features, 48 hours
[13] = system: HEL; settings: Homo sapiens, Myeloid Leukemia, 48 hours
[14] = system: KG1; settings: Homo sapiens, KG-1, KG1, Myeloid Leukemia, 48 hours
[15] = system: U937; settings: Homo sapiens, U-937, U937, Myeloid Leukemia, 48 hours
[16] = system: EOL-1; settings: Homo sapiens, EOL1, EOL-1 (FIP1L1-PDGFRα), Myeloid Leukemia, 48 hours
[17] = system: HL-60; settings: Homo sapiens, HL-60, Myeloid Leukemia, 48 hours
[18] = system: MV4-11; settings: Homo sapiens, MV4-11 (MLL-AF4), Biphenotypic Leukemia with Myeloid Features, 48 hours
[19] = system: Molm-13; settings: Homo sapiens, Molm-13 (MLL-AF9), Biphenotypic Leukemia with Myeloid Features, 48 hours
[20] = system: Molm-14; settings: Homo sapiens, Molm-14 (MLL-AF9), Biphenotypic Leukemia with Myeloid Features, 48 hours
[21] = system: THP-1; settings: Homo sapiens, THP-1 (MLL-AF9), Biphenotypic Leukemia with Myeloid Features, 48 hours
[22] = system: NOMO-1; settings: Homo sapiens, NOMO-1 (MLL-AF9), Biphenotypic Leukemia with Myeloid Features, 48 hours

pIC50 [1]: 6.24 | pIC50 [2]: 6.26 | pIC50 [10]: 6.33 | pIC50 [15]: 6.14 | pIC50 [17]: 5.92 | pIC50 [18]: 6.33 | pIC50 [19]: 6.14 | pIC50 [20]: 6.27 | pIC50 [21]: 5.60
Compound: O=C(CCCCCCC(=O)Nc1ccccc1)NO [vorinostat, N′-hydroxy-N-phenyl-octanediamide]
pIC50 [3]: 6.03 | pIC50 [4]: 6.15 | pIC50 [5]: 6.28 | pIC50 [6]: 6.15 | pIC50 [7]: 6.32 | pIC50 [8]: 6.19 | pIC50 [9]: 6.31 | pIC50 [11]: 6.39 | pIC50 [12]: 6.19 | pIC50 [13]: 6.20 | pIC50 [14]: 6.32 | pIC50 [16]: 6.42 | pIC50 [22]: 5.79
